Test [1] addresses T1, FLAG-UBXN1 (full-length, 1-297) (human) (UniProt Q04323).
T1 sequence: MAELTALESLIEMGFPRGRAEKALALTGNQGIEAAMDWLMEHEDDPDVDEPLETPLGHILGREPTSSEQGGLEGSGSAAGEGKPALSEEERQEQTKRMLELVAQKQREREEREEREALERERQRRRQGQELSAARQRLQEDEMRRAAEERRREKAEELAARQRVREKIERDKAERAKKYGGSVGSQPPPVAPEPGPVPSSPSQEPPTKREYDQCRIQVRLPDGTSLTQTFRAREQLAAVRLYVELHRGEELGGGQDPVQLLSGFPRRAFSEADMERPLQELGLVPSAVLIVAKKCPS
Nature of the test: co-IP.

Protein sequences, listed by entry. Tags and fused reporters are not part of them.
UniProt Q13616: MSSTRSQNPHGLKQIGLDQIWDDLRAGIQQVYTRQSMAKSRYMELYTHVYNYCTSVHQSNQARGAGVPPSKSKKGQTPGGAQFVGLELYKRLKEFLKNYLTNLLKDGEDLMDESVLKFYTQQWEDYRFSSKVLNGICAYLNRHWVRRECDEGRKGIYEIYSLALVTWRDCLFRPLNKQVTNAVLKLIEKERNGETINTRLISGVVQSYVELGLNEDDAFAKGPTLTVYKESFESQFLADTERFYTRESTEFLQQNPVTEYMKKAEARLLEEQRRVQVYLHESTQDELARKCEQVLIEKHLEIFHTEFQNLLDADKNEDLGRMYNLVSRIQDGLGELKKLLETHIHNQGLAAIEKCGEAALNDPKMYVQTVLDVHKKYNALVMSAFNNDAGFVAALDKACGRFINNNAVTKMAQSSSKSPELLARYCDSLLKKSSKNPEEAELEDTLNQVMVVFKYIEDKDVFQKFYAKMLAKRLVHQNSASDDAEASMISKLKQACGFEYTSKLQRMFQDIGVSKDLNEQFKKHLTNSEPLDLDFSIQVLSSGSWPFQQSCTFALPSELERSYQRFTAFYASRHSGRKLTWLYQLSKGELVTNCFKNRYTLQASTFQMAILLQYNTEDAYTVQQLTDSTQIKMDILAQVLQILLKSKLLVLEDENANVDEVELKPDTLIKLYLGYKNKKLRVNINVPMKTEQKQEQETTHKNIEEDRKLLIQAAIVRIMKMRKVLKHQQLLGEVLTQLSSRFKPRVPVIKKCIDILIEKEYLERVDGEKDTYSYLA
UniProt P63208: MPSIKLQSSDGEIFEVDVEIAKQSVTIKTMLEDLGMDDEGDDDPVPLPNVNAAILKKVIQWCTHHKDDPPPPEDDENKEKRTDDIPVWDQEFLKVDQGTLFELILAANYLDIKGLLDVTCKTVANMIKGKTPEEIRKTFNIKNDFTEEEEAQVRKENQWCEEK

The target in test [2] is FLAG-Cul1 (full-length) (UniProt Q13616). Nature of the test: co-IP.

Results are given in words; binding and its absence hold for the method and conditions named. Binding seen in cells or lysates may run through a third protein. Some binding calls cover weakened binding; strength is not graded here. Where a sequence is shown, tags or fusion partners need not be part of it.

Take Myc-Skp1 (from UniProt P63208 1-163): the binding entry in test [1] is reported as “no binding”.

B1: Myc-UBXN1 (protein, UniProt Q04323 1-297)
chain: T1 sequence
Take B1: the binding result in test [2] is “binds”.

These data come from article PMC5308826.
